Measurements reported in PubChem BioAssay AID504764 (Drosophila RNAi Screening Center, 2011).
The screen tested about 22,000 reagents; shown is an unselected part of those that have a named target and a result. Over the whole deposit, 403 (1.9%) were called active. 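Unnormalised raw counts per well; ratio z-scores behind the hit calls and whether each hit raises or lowers signal are not deposited.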 Reagents against one gene are numbered here. Reagent sequences are not shown. The record does not give: the amount of reagent.

Purpose: 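Knock-downs that raise or lower a Notch target reporter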 (primary screen)
Cell system: Drosophila Kc167 cells
Reagents: long dsRNA against Drosophila genes
Time to read-out: about 5 days (4 days dsRNA, then 24 h after transfection)
Conditions: transfection of constitutively active membrane-tethered Notch lacking the extracellular domain, read 24 h later
Detection: 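Firefly luciferase from an E(spl)m3 reporter with active Notch, plus control-promoter and uninduced reporter wells for normalisation; unnormalised counts, duplicate wells a and b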
Scale: induced reporter light, run 1, well a and induced reporter light, run 1, well b: higher = more light from the Notch target reporter with active Notch; control promoter light, run 1, well a and control promoter light, run 1, well b: higher = more light from the viral control promoter (cell number, transfection, viability); uninduced reporter light, run 1, well a: higher = more light from the Notch target reporter without active Notch
Active means: 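Wells with low control signal or poorly matching duplicates excluded; duplicates averaged; per source plate, z beyond ±2 for induced/control log2 ratio or beyond ±1.8 for induced/uninduced marks a hit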
Meaning of the calls: active = modifier hit (raised or lowered Notch signal); inactive = not a hit

| predicted target | dsRNA no. | induced reporter light, run 1, well a | induced reporter light, run 1, well b | control promoter light, run 1, well a | control promoter light, run 1, well b | uninduced reporter light, run 1, well a | activity call |
| --- | --- | --- | --- | --- | --- | --- | --- |
| Esyt2 (Extended synaptotagmin-like protein 2) | 1 | 1.16e5 | 1.19e5 | 1.57e5 | 1.57e5 | 6930 | inactive |
| CG42366 | 1 | 70795 | 83800 | 46320 | 55155 | 14160 | inactive |
| Syx5 (Syntaxin 5) | 1 | 1.73e5 | 1.71e5 | 1.62e5 | 1.48e5 | 12210 | inactive |
| Dph3 (Diphthamide biosynthesis 3) | 1 | 87020 | 83690 | 86565 | 58755 | 2970 | inactive |
| COX5A (Cytochrome c oxidase subunit 5A) | 1 | 90680 | 1.01e5 | 1.02e5 | 86385 | 9440 | inactive |
| eEF5 (eukaryotic translation elongation factor 5) | 1 | 1.60e5 | 1.40e5 | 95985 | 1.07e5 | 9800 | active |
| kri (krishah) | 1 | 82955 | 1.10e5 | 94115 | 35895 | 11595 | inactive |
| CG4278 | 1 | 2.17e5 | 2.24e5 | 1.86e5 | 2.30e5 | 18980 | inactive |
| Gr64c (Gustatory receptor 64c) | 1 | 68505 | 81885 | 1.44e5 | 1.17e5 | 5605 | inactive |
| CG7791 | 1 | 2.35e5 | 2.17e5 | 1.71e5 | 2.44e5 | 16020 | inactive |
| RhoU | 1 | 69970 | 83160 | 77660 | 53595 | 4338 | inactive |
| RhoU | 2 | 1.18e5 | 1.38e5 | 2.32e5 | 2.46e5 | 9245 | inactive |
| RhoU | 3 | 1.38e5 | 1.16e5 | 1.69e5 | 1.61e5 | 7578 | inactive |
| RhoU | 4 | – | – | – | – | – | inactive |
| CG33630 | 1 | 44625 | 47405 | 81290 | 53040 | 3295 | inactive |
| Rpn11 (Regulatory particle non-ATPase 11) | 1 | 6230 | 4055 | 6630 | 6010 | 338 | inactive |
| jdp | 1 | 64785 | 70820 | 79125 | 62760 | 4855 | inactive |

6 entries from above in another layout:
{"predicted target": "CG42366", "dsRNA no.": 1, "induced reporter light, run 1, well a": 70795, "induced reporter light, run 1, well b": 83800, "control promoter light, run 1, well a": 46320, "control promoter light, run 1, well b": 55155, "uninduced reporter light, run 1, well a": 14160, "activity call": "inactive"}
{"predicted target": "Syx5 (Syntaxin 5)", "dsRNA no.": 1, "induced reporter light, run 1, well a": 1.73e5, "induced reporter light, run 1, well b": 1.71e5, "control promoter light, run 1, well a": 1.62e5, "control promoter light, run 1, well b": 1.48e5, "uninduced reporter light, run 1, well a": 12210, "activity call": "inactive"}
{"predicted target": "Dph3 (Diphthamide biosynthesis 3)", "dsRNA no.": 1, "induced reporter light, run 1, well a": 87020, "induced reporter light, run 1, well b": 83690, "control promoter light, run 1, well a": 86565, "control promoter light, run 1, well b": 58755, "uninduced reporter light, run 1, well a": 2970, "activity call": "inactive"}
{"predicted target": "COX5A (Cytochrome c oxidase subunit 5A)", "dsRNA no.": 1, "induced reporter light, run 1, well a": 90680, "induced reporter light, run 1, well b": 1.01e5, "control promoter light, run 1, well a": 1.02e5, "control promoter light, run 1, well b": 86385, "uninduced reporter light, run 1, well a": 9440, "activity call": "inactive"}
{"predicted target": "eEF5 (eukaryotic translation elongation factor 5)", "dsRNA no.": 1, "induced reporter light, run 1, well a": 1.60e5, "induced reporter light, run 1, well b": 1.40e5, "control promoter light, run 1, well a": 95985, "control promoter light, run 1, well b": 1.07e5, "uninduced reporter light, run 1, well a": 9800, "activity call": "active"}
{"predicted target": "kri (krishah)", "dsRNA no.": 1, "induced reporter light, run 1, well a": 82955, "induced reporter light, run 1, well b": 1.10e5, "control promoter light, run 1, well a": 94115, "control promoter light, run 1, well b": 35895, "uninduced reporter light, run 1, well a": 11595, "activity call": "inactive"}

Continued.
| predicted target | dsRNA no. | induced reporter light, run 1, well a | induced reporter light, run 1, well b | control promoter light, run 1, well a | control promoter light, run 1, well b | uninduced reporter light, run 1, well a | activity call |
| --- | --- | --- | --- | --- | --- | --- | --- |
| Arl8 (ADP ribosylation factor-like 8) | 1 | 99400 | 1.01e5 | 93330 | 69735 | 7868 | inactive |
| CHKov2 (CHK domain ov2) | 1 | 2.93e5 | 2.76e5 | 5.26e5 | 4.20e5 | 19738 | inactive |
| Daao1 (D-amino acid oxidase 1) | 1 | 1.76e5 | 1.59e5 | 2.02e5 | 2.05e5 | 13320 | inactive |
| mRpL21 (mitochondrial ribosomal protein L21) | 1 | 86080 | 87865 | 97810 | 59615 | 5410 | inactive |
| CG10510 | 1 | 1.48e5 | 1.67e5 | 1.25e5 | 1.58e5 | 11655 | inactive |
| CG3598 | 1 | 1.10e5 | 1.08e5 | 1.82e5 | 1.70e5 | 8790 | inactive |
| CG15253 | 1 | 1.97e5 | 1.92e5 | 1.70e5 | 2.21e5 | 17535 | inactive |
| CG11141 | 1 | 51595 | 52250 | 45645 | 44090 | 3575 | inactive |
| CG31391 | 1 | 85355 | 88365 | 29885 | 28020 | 7430 | inactive |
| CG9926 | 1 | 1.19e5 | 1.03e5 | 1.01e5 | 81580 | 9720 | inactive |
| ODA-Dnal1 (Outer dynein arm dynein axonemal light chain 1) | 1 | 1.96e5 | 2.22e5 | 2.52e5 | 2.30e5 | 20092 | inactive |
| ATPsynCF6 (ATP synthase, coupling factor 6) | 1 | 1.02e5 | 93700 | 1.57e5 | 1.38e5 | 8725 | inactive |
| Tusp | 1 | 1.54e5 | 1.51e5 | 1.85e5 | 1.78e5 | 12555 | inactive |
| slp2 (sloppy paired 2) | 1 | 47245 | 46280 | 59130 | 48095 | 3520 | inactive |
| CG4553 | 1 | 1.99e5 | 1.19e5 | 1.97e5 | 1.85e5 | 13785 | inactive |
| CG18476 | 1 | 1.20e5 | 1.31e5 | 61360 | 53735 | 9138 | inactive |
| CG4017 | 1 | 99485 | 1.34e5 | 65440 | 89080 | 14470 | inactive |
| ARY (retired record) | 1 | 2.69e5 | 2.62e5 | 4.16e5 | 4.26e5 | 20115 | inactive |
| MCPH1 (Microcephalin) | 1 | 90880 | 78625 | 80250 | 70025 | 7205 | inactive |
| MCPH1 (Microcephalin) | 2 | 92005 | 95355 | 1.13e5 | 1.24e5 | 8995 | inactive |
| ZAP3 | 1 | 1.14e5 | 1.21e5 | 1.36e5 | 1.51e5 | 8860 | inactive |
| ZAP3 | 2 | 1.21e5 | 1.17e5 | 2.24e5 | 2.50e5 | 8125 | inactive |
| ZAP3 | 3 | 1.29e5 | 1.22e5 | 2.58e5 | 1.93e5 | 8020 | inactive |
| CG6000 | 1 | 1.60e5 | 1.99e5 | 2.08e5 | 2.04e5 | 16235 | inactive |
| Tip60 (Tat interactive protein 60kDa) | 1 | 2.11e5 | 2.22e5 | 4.00e5 | 3.62e5 | 17360 | active |
| MED24 (Mediator complex subunit 24) | 1 | 1.82e5 | 1.60e5 | 2.17e5 | 1.70e5 | 9760 | inactive |
| mus81 | 1 | 1.04e5 | 1.07e5 | 1.46e5 | 1.72e5 | 7250 | inactive |
| mus81 | 2 | 1.10e5 | 1.09e5 | 1.90e5 | 1.18e5 | 9080 | inactive |
| CG1545 | 1 | – | – | – | – | – | inactive |
| Muc11A (Mucin 11A) | 1 | 1.37e5 | 1.41e5 | 2.80e5 | 2.98e5 | 10325 | inactive |
| grnd (grindelwald) | 1 | 1.78e5 | 1.77e5 | 1.87e5 | 1.87e5 | 17850 | inactive |
| CG12375 | 1 | 73070 | 86885 | 70725 | 75605 | 6705 | inactive |
| PAPLA1 (Phosphatidic Acid Phospholipase A1) | 1 | 62655 | 82790 | 44475 | 50795 | 5350 | active |
| PAPLA1 (Phosphatidic Acid Phospholipase A1) | 2 | 1.52e5 | 1.68e5 | 1.13e5 | 1.42e5 | 19310 | inactive |
